Assay results: patent publication US20190016825A1
Numbering of substitutions follows the chain as printed. No constants are given. Whether binding was seen depends on the method and setting. Some binding calls cover weakened binding; strength is not graded here.

Protein sequences, listed by entry. Tags and fused reporters are not part of them. Lines headed by an entry give the natural chain unless they say otherwise; changes in a name come on top.
UniProt Q8NBP7: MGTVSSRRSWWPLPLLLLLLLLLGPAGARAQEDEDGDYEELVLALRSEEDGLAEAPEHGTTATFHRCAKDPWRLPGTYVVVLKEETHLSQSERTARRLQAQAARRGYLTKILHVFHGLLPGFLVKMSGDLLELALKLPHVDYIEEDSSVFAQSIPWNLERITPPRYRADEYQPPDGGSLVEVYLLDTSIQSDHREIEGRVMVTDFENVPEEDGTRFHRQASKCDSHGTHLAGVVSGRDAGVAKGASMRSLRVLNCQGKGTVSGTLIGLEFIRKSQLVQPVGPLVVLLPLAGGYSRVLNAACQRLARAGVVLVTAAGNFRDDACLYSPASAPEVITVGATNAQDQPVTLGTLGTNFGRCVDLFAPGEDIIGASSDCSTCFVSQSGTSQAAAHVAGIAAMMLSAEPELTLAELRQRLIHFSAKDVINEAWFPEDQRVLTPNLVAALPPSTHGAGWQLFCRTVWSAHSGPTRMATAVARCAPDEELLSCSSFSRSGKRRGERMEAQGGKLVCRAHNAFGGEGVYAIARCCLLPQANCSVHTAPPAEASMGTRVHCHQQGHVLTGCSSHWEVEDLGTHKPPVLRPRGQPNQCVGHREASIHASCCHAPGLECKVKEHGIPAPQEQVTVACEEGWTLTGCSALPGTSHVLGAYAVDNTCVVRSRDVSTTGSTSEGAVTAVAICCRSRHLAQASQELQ

B1: h001-11 (antibody, human IgG1, V domains shown)
VH: QVQLVQSGAEVKKPGASVKVSCKASGYTFTDYWMHWVRQAPGQGLEWMGYINPSSGFTKYHQNFKDRVTMTRDTSISTAYMELSRLTSDDTAVYYCARQYDYDEDWYFDVWGQGTTVTVSS
VL: DIQMSQSPSSLSASVGDRVTITCKSSQSLLNSRTRKNFLAWYQQKPGKAPKLLIYWASTRESGVPDRFSGSGSGTDFTLTISSLQPEDFATYYCKQSFNLFTFGQGTKLEIK
B2: h001-5 (antibody, human IgG1, V domains shown)
VH: B1 VH with T30N, T87R
VL: B1 VL with S5T, D66S
B3: h001-24 (antibody, human IgG1, V domains shown)
VH: B1 VH with T30N, R38K, M48I, R67K, V68A, M70L, R72A, T74K
VL: B1 VL with Q3V, A49S
B4: h001-23 (antibody, human IgG1, V domains shown)
VH: B1 VH with T30N, R38K, M48I, R67K, V68A, M70L, R72A, T74K
VL: B1 VL
B5: h001-13 (antibody, human IgG1, V domains shown)
VH: B1 VH with T30N
VL: B1 VL with S5T, D66S
B6: h001-19 (antibody, human IgG1, V domains shown)
VH: B1 VH with T30N, R72A, T74K
VL: B1 VL
B7: h001-17 (antibody, human IgG1, V domains shown)
VH: B1 VH with T30N, R72A, T74K
VL: B1 VL with S5T, D66S
B8: h001-16 (antibody, human IgG1, V domains shown)
VH: B1 VH with T30N
VL: B1 VL with Q3V, A49S
B9: h001-21 (antibody, human IgG1, V domains shown)
VH: B1 VH with T30N, R38K, M48I, R67K, V68A, M70L, R72A, T74K
VL: B1 VL with S5T, D66S
B10: h001-12 (antibody, human IgG1, V domains shown)
VH: B1 VH
VL: B1 VL with Q3V, A49S
B11: h001-18 (antibody, human IgG1, V domains shown)
VH: B1 VH with T30N, R72A, T74K
VL: B1 VL with S5T
B12: h001-9 (antibody, human IgG1, V domains shown)
VH: B1 VH
VL: B1 VL with S5T, D66S
B13: h001-6 (antibody, human IgG1, V domains shown)
VH: B1 VH with T30N, T87R
VL: B1 VL with S5T
B14: h001-7 (antibody, human IgG1, V domains shown)
VH: B1 VH with T30N, T87R
VL: B1 VL
B15: h001-3 (antibody, human IgG1, V domains shown)
VH: B1 VH with T87R
VL: B1 VL
B16: h001-14 (antibody, human IgG1, V domains shown)
VH: B1 VH with T30N
VL: B1 VL with S5T
B17: h001-15 (antibody, human IgG1, V domains shown)
VH: B1 VH with T30N
VL: B1 VL
B18: h001-1 (antibody, human IgG1, V domains shown)
VH: B1 VH with T87R
VL: B1 VL with S5T, D66S
B19: h001-22 (antibody, human IgG1, V domains shown)
VH: B1 VH with T30N, R38K, M48I, R67K, V68A, M70L, R72A, T74K
VL: B1 VL with S5T
B20: h001-2 (antibody, human IgG1, V domains shown)
VH: B1 VH with T87R
VL: B1 VL with S5T
B21: h001-8 (antibody, human IgG1, V domains shown)
VH: B1 VH with T30N, T87R
VL: B1 VL with Q3V, A49S
B22: h001-10 (antibody, human IgG1, V domains shown)
VH: B1 VH
VL: B1 VL with S5T
B23: h001-20 (antibody, human IgG1, V domains shown)
VH: B1 VH with T30N, R72A, T74K
VL: B1 VL with Q3V, A49S

These binders were tested against PCSK9-D374Y-BP15-His6 (human) (UniProt Q8NBP7) (assay: ELISA (Test 2)).

binding, binds:
B1
B2
B3
B4
B5
B6
B7
B8
B9
B10
B11
B12
B13
B14
B15
B16
B17
B18
B19
B20
B21
B22
B23

The binders below were run against PCSK9-BP15-His6 (human) (UniProt Q8NBP7) (assay: ELISA (Test 1)).

binding, binds:
B1
B2
B3
B4
B5
B6
B7
B8
B9
B10
B11
B12
B13
B14
B15
B16
B17
B18
B19
B20
B21
B22
B23
